Values quoted from earlier work, collected in patent US20220296594A1, “POTENTIATORS OF ANTIMICROBIAL AND/OR ANTIVIRAL AGENTS” (MASSACHUSETTS INSTITUTE OF TECHNOLOGY, priority 2019, published 2022).
At least one compound was matched to its structure with a doubt left.

System: E. coli cells
Conditions: E. coli cells treated with the antibiotic; cited from earlier work

**Q.** With `NC[C@H]1O[C@H](O[C@H]2[C@H](O)[C@@H](O[C@H]3O[C@H](CO)[C@@H](O)[C@H](N)[C@H]3O)[C@H](N)C[C@@H]2N)[C@H](O)[C@@H](O)[C@@H]1O` [kanamycin] as the molecule, how does the “intracellular purine nucleic acid bases (adenine, guanine)” value read?
**A.** depleted

**Q.** What about the “intracellular pyrimidine nucleic acid bases (cytosine, thymine, uracil)” value of the same molecule?
**A.** accumulate
